In article PMC12040169 (PLOS Biology, 2025):
This is one part of the list.

These compounds were tested on T1, CTL2-GFP (C. trachomatis L2/434/Bu, GFP-expressing). Settings: bulk GFP, single well; 28.5 h, 10 µM; inhibitor.
T1 construct: L2/434/Bu, GFP-expressing
Design: species or system HeLa; Intracellular C. trachomatis growth in HeLa cells, bulk GFP fluorescence relative to DMSO

| SMILES | % of control remaining [%] |
| --- | --- |
| CN(C)CCN(C)c1cncc(-c2ccc(F)cc2F)n1 [CBK065652] | 174.52 |
| Cc1ccc2[nH]nc(C(=O)NC(C)c3ccccn3)c2c1 (stereo not drawn) [CBK281887] | 107.277 |
| CC(=O)NCc1cccc(-c2cc(C(=O)NCCc3cccc(OC(F)(F)F)c3)cnc2-c2ccc(Cl)cc2)c1 [CBK164414] | 101.142 |
| O=C(Nc1nc2ccc(Br)cc2s1)C1CC2CCC1C2 (stereo not drawn) [CBK026397] | 120.171 |
| CC(C)C(=O)N1CC2(CCN(Cc3cccc(C(F)(F)F)c3)CC2)c2ccccc21 [CBK126716] | 55.317 |
| OCCN(CC#CC(O)(c1ccccc1)c1cccc(F)c1)CCO (stereo not drawn) [CBK301210C] | 155.204 |
| Cc1cc(C)n(CC(=O)Nc2cccc(CCc3ccncc3)c2)c(=O)n1 [CBK285555] | 137.059 |
| COc1cccc(C(c2ccccn2)N(C)C(=O)C2CCN(S(=O)(=O)c3c(C)noc3C)CC2)c1 (stereo not drawn) [CBK060212] | 173.355 |
| O=C(N[C@H]1COC(=O)N1)OCc1ccccc1 [CBK007606] | 117.501 |
| O=C(N[C@H]1CCN2C(=O)c3cc(-c4cccs4)ccc3NC(=O)[C@@H]2C1)c1cnccn1 [CBK289559] | 111.141 |
| c1ccc(N2CCN(CC3CN(c4ccccc4)c4ccccc4O3)CC2)cc1 (stereo not drawn) [CBK066876] | 109.316 |
| O=C(c1cncnc1)N1CCN(c2ncccn2)CC1 [CBK144515] | 126.856 |
| Cc1ccc(C)c(OCCNS(=O)(=O)c2cc([N+](=O)[O-])ccc2C)c1 [CBK267393] | 112.458 |
| O=C(CCN1C(=O)c2cccc([N+](=O)[O-])c2C1=O)Nc1cccc(-c2cnc3ccccc3n2)c1 [CBK268620] | 126.565 |
| Cc1ccc(S(=O)(=O)NC(C)C(=O)Nc2ccc(C)c(Cl)c2)cc1 (stereo not drawn) [CBK266263] | 189.072 |
| CCOC(=O)c1cn([C@H]2CC[C@H](O)CC2)cc(Oc2ccccc2)c1=O [CBK307565] | 107.328 |
| COCCn1c(SCC(=O)N2CCNC2=O)nc2ccccc21 [CBK305851] | 109.889 |
| O=c1cc(O)cc(CCc2ccccc2)o1 [CBK012714] | 101.283 |
| CC(c1ccc(Cl)cc1Cl)N(C)C(=O)Cn1cnc2c1CCCC2 (stereo not drawn) [CBK306387] | 80.635 |
| CCc1nc(C(C)NC(=O)COc2nn(C)c3nc(C)cc(C)c23)cs1 (stereo not drawn) [CBK306024] | 125.362 |
| Cc1n[nH]c(O)c1C(c1ccc(OC(=O)c2ccc(F)cc2)cc1)c1c(C)n[nH]c1O [CBK264816] | 128.348 |

| SMILES | % of control remaining [%] |
| --- | --- |
| COc1c(Br)cc(Br)cc1/C=C1/SC(=N)NC1=O [CBK119298] | 138.803 |
| COc1ccc(C(C)C)cc1-c1nc2ncccc2cc1NC(=O)C(C)C [CBK073659] | 125.545 |
| COc1cccc(N(CC(=O)Nc2ccc(C)c(C)c2)S(=O)(=O)c2ccc(C)cc2)c1 [CBK263761] | 97.8231 |
| Cn1nc2c(c1C(=O)N1CCc3[nH]c4ccccc4c3C1)CCCC2 [CBK281844] | 137.939 |
| CC[C@H](Cn1ncc2ccccc2c1=O)NC(=O)CC(C)C [CBK284305] | 116.689 |
| COc1cccc(NC(=O)CC(CN2CCC(O)CC2)C(=O)O)c1 (stereo not drawn) [CBK286842] | 135.871 |
| COc1ccc2c(c1)CC(=O)NC21CCN(C(=O)N[C@@H](C)c2ccccc2)CC1 [CBK047325] | 103.086 |
| O=[N+]([O-])c1ccccc1CN1C[C@H](O)C[C@H]1c1nc(-c2ccncc2)no1 [CBK288839] | 126.023 |
| CCNC(=O)Nc1cc2cccnc2c(-c2ccsc2)n1 [CBK081226] | 168.249 |
| Cc1ccc(NC(=O)CCC(=O)N/N=C/c2ccco2)c(C)c1 [CBK263885] | 96.5422 |
| CCOC(=O)c1cnn2c(O)cc(CN(CC(C)(C)O)C(C)C)nc12 [CBK306133] | 110.509 |
| CC(=O)Nc1c[nH]nc1C1CCCN(c2cccc(F)c2C#N)C1 (stereo not drawn) [CBK306401] | 129.934 |
| O=C1NC(CCSC2=NCN=N2)Oc2ccccc21 (stereo not drawn) [CBK009148] | 126.289 |
| O=C(c1nccs1)C1CCN(C(=O)c2cc(F)cc(F)c2)CC1 [CBK284200] | 114.951 |
| O=C1CCC(=O)N1CCOc1nccnc1N1CCN(CCc2c[nH]c3ccccc23)CC1 [CBK084304] | 55.4361 |
| NC(=O)C1CCCN(S(=O)(=O)c2ccc(S(N)(=O)=O)cc2)C1 (stereo not drawn) [CBK266312] | 134.75 |
| CCC(CC)C(=O)N1CCn2c(nnc2-c2cncc(Br)c2)C1 [CBK304409] | 113.258 |
| O[C@@]1(c2ccccn2)CC[C@H]2CN(CC3CCCCC3)C[C@H]21 [CBK282996] | 130.571 |
| O=C(Oc1ccc(-c2cnc3ccccc3n2)cc1)c1ccc(S(=O)(=O)N2CCCCC2)cc1 [CBK267812] | 129.531 |
| CCCCNc1ncncc1-c1ccc(Br)cc1 [CBK005014C] | 66.1886 |
| COc1ncc(-c2nccnc2OCC2COc3ccccc3O2)c(OC)n1 (stereo not drawn) [CBK106754] | 111.237 |

| SMILES | % of control remaining [%] |
| --- | --- |
| Cn1c(SCCCN2C(=O)c3cccc4cccc(c34)C2=O)nnc1-c1ccncc1 [CBK268951] | 132.234 |
| Cc1ccc(NC(=O)C(=O)NCCCn2ccnc2)cc1C [CBK264157] | 118.146 |
| CSCCC(=O)Nc1ccc2c(ccn2Cc2ccccc2)c1 [CBK159732] | 74.5404 |
| O=C(C[n+]1ccccc1)c1ccccc1Cl [CBK016283B] | 117.376 |
| CC1=[N+]([O-])C2(N)CCc3nonc3C2(O)C1 (stereo not drawn) [CBK261513] | 113.353 |
| O=C(c1ccco1)N1CCN(c2cc(-c3cc(C(F)(F)F)cc(C(F)(F)F)c3)ncn2)CC1 [CBK037734] | 88.32 |
| CCn1c(CCCNC=O)nc2ccccc21 [CBK269551] | 136.438 |
| O=C(O)CN1/C(=C\C=C2/SC(=S)N(c3ccccc3)C2=O)Sc2ccccc21 [CBK265251] | 100 |
| O=C(Nc1ccc(Cl)cc1Cl)C1CC2CCC1C2 (stereo not drawn) [CBK058237] | 118.92 |
| Cc1nccn1CC1CCCN(Cc2nc3ccccc3[nH]2)C1 (stereo not drawn) [CBK281619] | 145.675 |
| Cc1nc(N)nc(N2CCN(C)CC2)n1 [CBK015681] | 105.275 |
| O=C(c1cccc(Br)c1)N1CCN(S(=O)(=O)N2CCOCC2)CC1 [CBK267470] | 137.777 |
| CC1CCN(C(=O)C2CCCCC2C(=O)O)CC1 (stereo not drawn) [CBK028392] | 122.145 |
| Cn1ccnc1SCCNC(=O)c1cccc(Cn2cccn2)c1 [CBK282112] | 124.402 |
| Cc1ccc(-c2cc(C(=O)NCCCn3ccnc3)no2)cc1 [CBK268200] | 96.8755 |
| CC(=O)Nc1nc(-c2ccccc2C)ccc1C(=O)N(C)C [CBK106328] | 96.0833 |
| c1ccc(OCCSc2cc(N3CCCC3)ncn2)cc1 [CBK103689] | 90.1217 |
| CC1CCc2onc(C(=O)NCc3nccn3C)c2C1 (stereo not drawn) [CBK281514] | 126.576 |
| Cc1cccnc1C(Cc1ccsc1)NC(=O)Cn1ccnc1 (stereo not drawn) [CBK284802] | 169.942 |
| O=C(NCCCn1ccnc1)C1CCN(C(=O)c2cccc(Cl)c2)CC1 [CBK307596] | 98.7145 |
| FC(F)(F)c1cccc(CSc2nccnc2N2CCCC2)c1 [CBK107178] | 137.496 |

Sorted by heavy-atom count (ascending): part of the list above

| SMILES | % of control remaining [%] |
| --- | --- |
| O=C(C[n+]1ccccc1)c1ccccc1Cl [CBK016283B] | 117.376 |
| c1ccc(OCCSc2cc(N3CCCC3)ncn2)cc1 [CBK103689] | 90.1217 |
| Cc1ccc(NC(=O)C(=O)NCCCn2ccnc2)cc1C [CBK264157] | 118.146 |
| CSCCC(=O)Nc1ccc2c(ccn2Cc2ccccc2)c1 [CBK159732] | 74.5404 |

The listing continues.

| SMILES | % of control remaining [%] |
| --- | --- |
| CCc1nn(CC(=O)NCC2CC2)c(=O)c2cc3sc(C)cc3n12 [CBK284100] | 108.884 |
| CCC1CCCCN1Cc1nc2c(c(=O)n(C)c(=O)n2C)n1CCCO (stereo not drawn) [CBK269365] | 189.975 |
| COc1ccccc1CN(C)C(C)C(=O)Nc1ccc(NC(C)=O)cc1 (stereo not drawn) [CBK305873] | 125.872 |
| NC1CC(c2cc(NCCOc3ccccc3Cl)ncn2)C1 (stereo not drawn) [CBK307167] | 143.774 |
| COCC(=O)N1CCc2nc(-c3ccc(F)cc3)sc2C1 [CBK281673] | 59.9525 |
| O=C(CCn1c(C(F)F)cc2cccnc21)NCc1ccccn1 [CBK285068] | 144.571 |
| O=C1/C(=N\O)c2ccccc2N1Cc1ccccc1 [CBK288484] | 117.908 |
| Cc1ccc(NC(=O)CSc2nnc(-c3cnccn3)s2)cc1 [CBK269872] | 132.421 |
| S=C(NCCc1ccccn1)NCCN1CCOCC1 [CBK268296] | 93.0817 |
| Cc1ccc(S(=O)(=O)NNC(=O)COc2cccc3cccnc23)cc1 [CBK268788] | 96.2372 |
| Nc1ncc(-c2cccc(F)c2)nc1Nc1ccc2[nH]ccc2c1 [CBK063851] | 149.623 |
| Cc1ccc(CNS(=O)(=O)c2ccc3ccccc3c2)cc1 [CBK266501] | 113.121 |
| CC12CN3CC(C)(CN(C1)C3c1cc(Br)ccc1O)C2O (stereo not drawn) [CBK262664] | 97.8777 |
| COc1ccc(-c2cc(C(=O)Nc3c(C)cccc3C)n[nH]2)c(OC)c1 [CBK288114] | 117.192 |
| CCOc1ccc(C(=O)CCNCC(=O)O)cc1 [CBK286657] | 116.088 |
| Cc1cc(=O)n(C)c(=O)n1CCCN1CCCCC1 [CBK027584] | 139.215 |
| CN(C)c1ncccc1OC1CCN(c2ccnc(C3CC3)n2)C1 (stereo not drawn) [CBK306182] | 93.4412 |
| Fc1ccc2c3c([nH]c2c1)C1(CCN(Cc2cc(F)c(F)c(F)c2)CC1)NCC3 [CBK039688] | 118.515 |

Individual results from the list.
In % of control remaining [%], `CN(C)c1ncccc1OC1CCN(c2ccnc(C3CC3)n2)C1` (stereo not drawn) [CBK306182] reads 93.4412
In % of control remaining [%], `NC1CC(c2cc(NCCOc3ccccc3Cl)ncn2)C1` (stereo not drawn) [CBK307167] reads 143.774
